Primary screen of a compound library

By UniProt entry, the sequences of proteins in these tests, tags left out.
UniProt E9BF75, entry or part of it: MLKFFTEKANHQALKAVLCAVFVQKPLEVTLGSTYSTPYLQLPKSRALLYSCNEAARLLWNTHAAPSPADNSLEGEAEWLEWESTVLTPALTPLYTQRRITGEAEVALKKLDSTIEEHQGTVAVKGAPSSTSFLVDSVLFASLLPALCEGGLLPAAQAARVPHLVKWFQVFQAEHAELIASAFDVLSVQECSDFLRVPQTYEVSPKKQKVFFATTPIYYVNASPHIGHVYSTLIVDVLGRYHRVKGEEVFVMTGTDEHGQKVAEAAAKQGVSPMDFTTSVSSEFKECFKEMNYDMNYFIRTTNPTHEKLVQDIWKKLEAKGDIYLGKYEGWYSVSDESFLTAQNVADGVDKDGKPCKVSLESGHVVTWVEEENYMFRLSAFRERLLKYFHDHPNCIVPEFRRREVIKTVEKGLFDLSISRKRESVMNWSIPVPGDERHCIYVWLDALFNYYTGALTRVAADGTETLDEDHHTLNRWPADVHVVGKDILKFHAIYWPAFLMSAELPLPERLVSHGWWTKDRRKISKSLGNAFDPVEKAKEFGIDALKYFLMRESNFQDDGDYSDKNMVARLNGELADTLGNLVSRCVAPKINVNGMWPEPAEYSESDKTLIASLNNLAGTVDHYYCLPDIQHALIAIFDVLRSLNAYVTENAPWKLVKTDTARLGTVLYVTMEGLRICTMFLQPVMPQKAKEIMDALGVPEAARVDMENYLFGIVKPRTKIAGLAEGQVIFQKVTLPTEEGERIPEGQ

Results are percentages, as filed. The controls that fix the scale are not given in the record; negative values are as filed. This is an unselected part of the compounds tested.

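Primary screen of methionyl-tRNA synthetase; the read-out is not stated. Target: Methionyl-tRNA synthetase (putative), Leishmania donovani (UniProt E9BF75). The test concentration is not given. Values are per cent inhibition. About 68,000 compounds were tested under these conditions; 0.035% (about 24) showed 50% or more at least once.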

| structure | inhibition |
|---|---|
| `Cc1cnc(CN(Cc2ccc(C#N)cc2F)C2CCN(C)C2)o1` (centres unmarked) | 16.85 |
| `O=C(Cn1cnc2sccc2c1=O)NCCc1nnc2ccccn12` | 10.76 |
| `COCCN1CCC(c2nc3c([nH]2)CCCNC3=O)CC1` | 6.138 |
| `COc1cc(F)ccc1-c1cc(CO)ccn1` | 14.97 |
| `CSCC(=O)N1CCOC(c2nc(C)n[nH]2)C1` (centres unmarked) | 16.49 |
| `Cc1cc(N2CCCCCC2)n2nc(C)c(C)c2n1` | 15.93 |
| `CNCCNc1nccc(-c2cn(C)nc2C)n1` | 8.791 |
| `CCn1cc2c(n1)C(COCC1CC1)CN(c1ccc(C)nn1)C2` (centres unmarked) | 8.014 |
| `CC(C(=O)N(C)Cc1ccco1)n1cncn1` (centres unmarked) | 3.125 |
| `CN1C(=O)C2(CC(=O)Nc3c2cnn3C(C)(C)C)c2c(Cl)cccc21` (centres unmarked) | 8.499 |
| `Cc1nnc2n1CCN(C(=O)CN1C(=O)C(C)Oc3ccccc31)C2` (centres unmarked) | 7.246 |
| `Cc1ccnc(N2CCN(C[C@]3(O)CCCN4CCCC[C@@H]43)CC2)c1` | 9.021 |
| `CCCNC(=O)c1cc(-c2cnc(N3CCCC3)nc2)cn1C` | 10.95 |
| `Cn1nccc1-c1nnn2c1COCC(CNCC1CC1)C2` (centres unmarked) | 7.235 |
| `COc1ccc(CN2CCC(c3nccnc3-n3ccnc3)CC2)cc1` | 6.472 |
| `CCOCC(=O)N1C[C@@H]2CC[C@H](Oc3ccccc3)[C@@H]2C1` | 14.79 |
| `COCCN1CCCC(O)(CN2CCN(c3ncccc3C)CC2)C1=O` (centres unmarked) | 8.333 |
| `O=C(C1CCCN(c2nc3ccccc3cc2CO)C1)N1CCCC1` (centres unmarked) | 5.575 |
| `Brc1ccc(NCCCOC2CCOCC2)nc1` | 11.08 |
| `CC(C)c1nccn1C1CCCN(C(=O)c2cnc[nH]2)C1` (centres unmarked) | 12.6 |
| `Cc1nc(C2CCCN2C(=O)COc2ccccc2)ncc1C(N)=O` (centres unmarked) | 0 |
| `CNC(=O)[C@@H]1C[C@H]2CN(Cc3ccc(C)o3)C[C@H]2N1C(C)=O` | 9.524 |
| `O=C(NCc1nncn1C1CC1)c1ccccc1Oc1cccnc1` | 2.514 |
| `COc1ccccc1C(C)(C)NC(=O)NC1CCC(O)CC1` (centres unmarked) | 13.8 |
| `CN(CC(F)(F)F)C(=O)COc1nc(Cc2ccc(F)cc2)no1` | 10.59 |
| `O=C(CSc1ccc2c(c1)OCCO2)NS(=O)(=O)c1ccccc1Cl` | 13.86 |
| `Cc1nc(N2CCCC2)ncc1C(=O)Nc1ccc(Br)cc1` | 18.35 |
| `CC(O)CN1CCC(CNCc2ccccc2F)CC1` (centres unmarked) | 10 |
| `Cc1cc(C(C)NC(=O)c2ccc(O)nc2)c(C)o1` (centres unmarked) | 10.03 |
| `O=C(c1nn[nH]c1Nc1ccc(Cl)cc1)N1CCCCCC1` | 16.57 |
| `CC(CNC(=O)N(C)Cc1ccco1)N1CCc2sccc2C1` (centres unmarked) | 1.105 |
| `Cc1cc(CCC(N)=O)cc(C2CCCN2Cc2cnc(C)nc2)n1` (centres unmarked) | 3.883 |
| `O=C(O)c1sccc1Oc1ccc(NC(=O)C2CC2)cc1` | 10.78 |
| `CCNC(=O)NC(C)(C)C(=O)NCCc1csc2ccccc12` | 16.33 |
| `Cn1ccnc1-c1cn(CCCc2nnc(N)s2)nn1` | 12.38 |
| `CNc1cc(C2CCCN2Cc2ccc(OCC(=O)O)cc2)ccn1` (centres unmarked) | 16.18 |
| `CNc1cc(C2CN(C(=O)c3cnn(C)c3)CCO2)nc(C)n1` (centres unmarked) | 6.383 |
| `CS(=O)(=O)N1CCCn2nc(CNc3ncccn3)cc2C1` | 14.29 |
| `CCCN1CCCC2(CCN(S(=O)(=O)c3cccnc3)C2)C1=O` (centres unmarked) | 18.01 |
| `COc1ccccc1CC1CCCN(C(=O)c2cn[nH]c2C)C1` (centres unmarked) | 6.301 |
| `COc1cc(C(=O)Nc2nc(C)no2)cc(OC)c1Br` | 16.06 |
| `Cc1nc(C2CCCN2CC(=O)Nc2c(C)n[nH]c2C)no1` (centres unmarked) | -6.553 |
| `COc1c(F)cc(CN2CCC3(CC2)CN(C)C(=O)O3)cc1Cl` | 11.42 |
| `CC1=Nc2c(c(O)nn2C(C)C)C(c2cn(C)nc2C)S1` (centres unmarked) | 5.714 |
| `CCc1ccc(C(=O)N2CCCC(n3cncn3)C2)o1` (centres unmarked) | 11.5 |
| `CN(C)S(=O)(=O)N1CCC(Cn2cccn2)CC1` | 6.522 |
| `CC(C)[C@H](NS(C)(=O)=O)C(=O)NCc1cc(-c2ccco2)nn1C` | 6.553 |
| `Cc1ccc2[nH]c(-c3cn(C4CCNCC4)nn3)nc2c1C` | 12.63 |
| `Cc1nc(C)c(S(=O)(=O)NC(=O)c2ccsc2)s1` | 14.11 |
| `COc1cccc(C(=O)NS(=O)(=O)c2cncc(Br)c2)c1OC` | 12.18 |
| `CC(C)NC(=O)[C@H]1C[C@@H]2[C@@H](C1)OCCN2CC1CC1` | 13.49 |
| `NCCC(=O)Nc1ccc(-c2ccccc2)cc1` | 10.28 |
| `CNC(=O)c1n[nH]c2c1C(c1cccc3[nH]ccc13)CC(=O)N2` (centres unmarked) | 8.462 |
| `O=c1[nH]nc(C2CC2)n1-c1cccc(Cl)c1` | 8.157 |
| `COc1ccc(CN2CCC(O)CC2)c(OC)c1` | 6.159 |
| `Cc1cnc(CN2CC=C(c3c[nH]c4ncccc34)CC2)o1` | 17.13 |
| `CC(C)c1nn(C)c(N(C)C)c1CNCC(O)c1ccccc1F` (centres unmarked) | 14.98 |
| `CS(=O)(=O)NC1CCN(C(=O)c2cnc(-c3cccnc3)nc2)CC1` | 11.11 |
| `COc1ccc2nc(C)c(C(=O)NCCN3CCS(=O)(=O)CC3)cc2c1` | 9.358 |
| `O=C(NCCc1coc(-c2ccc(F)cc2)n1)NC1CCC(O)CC1` (centres unmarked) | 12.59 |
| `Cc1c(Cl)cccc1NC(=O)CCNc1ccc(C#N)cn1` | 5.783 |
| `Cc1noc(Cl)c1CC(=O)N1CCCC1Cn1cccn1` (centres unmarked) | 11.72 |
| `Cc1nc(NCCc2ccccc2)cc(C(=O)N2CCCCC2)n1` | -9.181 |
| `O=C(NCC1CC1)[C@@H]1CCO[C@@H]2CCN(c3ncccn3)C[C@@H]21` | 3.583 |
| `CC(O)CCN(C)C(=O)Nc1cccc(F)c1` (centres unmarked) | 14.56 |
| `Cc1cnc2c(c1NCc1ccc3c(c1)OCO3)c(=O)n(C)c(=O)n2C` | 2.586 |
| `O=C(C1CC(=O)N(c2ccccc2Br)C1)N1CCCCCC1` (centres unmarked) | 9.441 |
| `CN(Cc1ncc(C(C)(C)C)o1)C1CCCN(c2cccnn2)C1` (centres unmarked) | 4.225 |
| `Cc1cc(-c2cnn(C)c2)ccc1OCC(N)=O` | 3.733 |
| `O=C1NCCCCC1Sc1n[nH]c(=O)n1C1CC1` (centres unmarked) | 10.87 |
| `CC(NCc1cccc(NC(=O)C2CCCCC2)c1)c1cnn(C)c1` (centres unmarked) | 14.6 |
| `CCc1n[nH]c(C2CN(C(=O)c3cnc(C)nc3CC)CCO2)n1` (centres unmarked) | 9.659 |
| `COCC(=O)N1CCCC(c2nc(N)ncc2-c2cccc(F)c2)C1` (centres unmarked) | 7.937 |
| `Cc1cc(NCCOCCS(C)(=O)=O)nc2ccccc12` | 14.4 |
| `Cc1nc(CO[C@@H]2CN(Cc3ccccn3)[C@@H]3COC[C@@H]32)cs1` | 23.12 |
| `Cc1cc(NC(=O)NCC(CC(C)C)N2CCOCC2)n(C)n1` (centres unmarked) | 10.56 |
| `CC(=O)Nc1nc(C(=O)N2CCCCC2Cn2cc(C)cn2)cs1` (centres unmarked) | 12.15 |
| `CS(=O)(=O)NCCCNC(=O)c1cccc(-n2cccc2)c1` | 9.155 |
| `CC(Oc1ccc(S(C)(=O)=O)cc1)C(=O)NC(N)=O` (centres unmarked) | 10.11 |
| `Cc1csc(C2CCCCN2C(=O)c2cc(C)n(C)n2)n1` (centres unmarked) | 9.659 |
| `CCN(CC)CCN1CC[C@H]2OCC[C@@]2(C(=O)N2CCOCC2)C1` | 8.934 |
| `CC(C)NC(=O)COc1nc(C(C)(C)C)no1` | 10.51 |
| `CC(O)CN1CCN(C(=O)c2cnc(OC(C)C)c(Cl)c2)CC1` (centres unmarked) | 3.746 |
| `COCCN(CCN(C)C)C(=O)NC1CC1` | 13.75 |
| `CCn1cc(NC(=O)NCCN2CCc3ccccc3C2)cn1` | 19.34 |
| `Cc1ccccc1CC(C)NCc1c(C)nn(C)c1N1CCOCC1` (centres unmarked) | 11.5 |
| `COCCn1ccc2c(NC(=O)c3n[nH]c4c3CCCC4)cccc21` | 18.59 |
| `Cc1[nH]nc(CCC(=O)N2CCc3c(nc[nH]c3=O)C2)c1C` | 17.34 |
| `O=C(Cc1cccc(F)c1F)NS(=O)(=O)c1ccc(Cl)cn1` | 14.29 |

Once more, the final 5:

structure,inhibition
CCn1cc(NC(=O)NCCN2CCc3ccccc3C2)cn1,19.34
Cc1ccccc1CC(C)NCc1c(C)nn(C)c1N1CCOCC1 (centres unmarked),11.5
COCCn1ccc2c(NC(=O)c3n[nH]c4c3CCCC4)cccc21,18.59
Cc1[nH]nc(CCC(=O)N2CCc3c(nc[nH]c3=O)C2)c1C,17.34
O=C(Cc1cccc(F)c1F)NS(=O)(=O)c1ccc(Cl)cn1,14.29

Source: ChEMBL document CHEMBL3988442, “University of Dundee, Small-Polar-MMV Screening Library” (2021).